Data published in US20260108546A1 (ELI LILLY AND COMPANY, priority 2024, published 2026).
Where a name gives a salt, the structure may show the parent alone. Some results were stated once for a whole list of compounds, not compound by compound.

biological target: T1, hGIP-R (Homo sapiens, UniProt P48546); test: Functional hGIP-R Assay (cAMP formation, HTRF); assay type: cell-based; conditions: cAMP formation in HEK-293 clonal cell lines expressing hGIP-R; 30 min at 37° C.; 0.1% bovine casein; relative EC50 vs. maximal response of human GIP (1-42) OH
T1 construct: expressed in transfected cells; host or cells: HEK-293 clonal cell lines
T1 sequence (P48546 22-466): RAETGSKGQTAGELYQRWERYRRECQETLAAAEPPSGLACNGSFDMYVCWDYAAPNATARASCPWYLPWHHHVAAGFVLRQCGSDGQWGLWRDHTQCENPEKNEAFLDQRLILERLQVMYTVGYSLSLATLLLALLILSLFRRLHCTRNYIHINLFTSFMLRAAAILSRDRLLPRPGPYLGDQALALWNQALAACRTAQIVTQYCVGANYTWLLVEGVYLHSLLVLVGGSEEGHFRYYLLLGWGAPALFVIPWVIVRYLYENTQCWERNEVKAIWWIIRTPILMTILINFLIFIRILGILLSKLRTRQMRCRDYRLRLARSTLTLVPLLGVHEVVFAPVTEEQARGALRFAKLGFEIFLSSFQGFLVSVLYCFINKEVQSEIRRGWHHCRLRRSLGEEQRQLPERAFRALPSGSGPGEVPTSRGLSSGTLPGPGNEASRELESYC
Summary of the method: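 HEK-293 cells expressing hGIP-R were given a 20-point compound series in DMEM with 0.1% casein, 250 μM IBMX, 1% DMSO, 30 min at 37 °C. cAMP was read by HTRF against a standard curve, expressed as % of human GIP (1-42) OH maximum; EC50 and Emax came from four-parameter fits.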

SMILES	EC50 [nM]
COc1cc2cc(-c3ccc([C@H]4C[C@@]45CCN([C@H](Cc4cnn(C(F)F)c4)C(=O)NC(C)(C)Cn4nc(C(F)(F)F)cc4-c4ccc(=O)n(C)c4)C5=O)cc3)cnc2nc1C (single isomer, unassigned; isomer 1) [Example 105]	≤ 300
[2H]C([2H])([2H])N(C(=O)[C@H]1C[C@@H]1c1ccc(-c2cnc3nn(C)cc3c2)nc1C(F)F)[C@@H](Cc1cnn(C(F)F)c1)C(=O)NC(C)(C)Cn1nc(C(F)(F)F)cc1-c1cc(F)c(=O)n(C)c1 [Example 138, (1S,2S)-N-((S)-3-(1-(Difluoromethyl)-1H-pyrazol-4-yl)-1-((1-(5-(5-fluoro-1-methyl-6-oxo-1,6-dihydropyridin-3-yl)-3-(trifluoromethyl)-1H-pyrazol-1-yl)-2-methylpropan-2-yl)amino)-1-oxopropan-2-yl)-2-(2-(difluoromethyl)-6-(2-methyl-2H-pyrazolo[3,4-b]pyridin-5-yl)pyridin-3-yl)-N-(methyl-d3)cyclopropane-1-carboxamide]	≤ 300
Cn1cc(C[C@@H](NC(=O)[C@H]2C[C@@H]2c2ccc(-c3cnc4nn(C)cc4c3)cc2)C(=O)NC(C)(C)Cn2nc(C(F)F)cc2-c2cn[nH]n2)cn1 [Example 44, (1S,2S)-N-((R)-1-((1-(3-(Difluoromethyl)-5-(2H-1,2,3-triazol-4-yl)-1H-pyrazol-1-yl)-2-methylpropan-2-yl)amino)-3-(1-methyl-1H-pyrazol-4-yl)-1-oxopropan-2-yl)-2-(4-(2-methyl-2H-pyrazolo[3,4-b]pyridin-5-yl)phenyl)cyclopropane-1-carboxamide]	≤ 300
CC(C)(Cn1cc(C(F)(F)F)cn1)NC(=O)[C@@H](Cc1cnc2ncccn12)NC(=O)[C@H]1C[C@@H]1c1ccc(-c2cnc3nc(C4CCC4)cn3c2)cc1 [Example 78, (1S,2S)-2-(4-(2-Cyclobutylimidazo[1,2-a]pyrimidin-6-yl)phenyl)-N-((R)-3-(imidazo[1,2-a]pyrimidin-3-yl)-1-((2-methyl-1-(4-(trifluoromethyl)-1H-pyrazol-1-yl)propan-2-yl)amino)-1-oxopropan-2-yl)cyclopropane-1-carboxamide]	≤ 300
Cn1cc2cc(-c3ccc(C4CC4C(=O)N[C@H](Cc4cnc5ncccn45)C(=O)NC(C)(C)Cn4cc(C(F)(F)F)cn4)c(F)c3)cnc2n1 (single isomer, unassigned; isomer 2) [Example 71]	≤ 300
CN(C(=O)[C@H]1C[C@@H]1c1ccc(-c2cnc3nn(C(F)(F)F)cc3c2)cc1)[C@H](Cc1cnn(C)c1)C(=O)NC(C)(C)Cn1nc(C(F)(F)F)cc1-c1ccc(=O)n(C)c1 [Example 89, (1S,2S)-N-Methyl-N-((R)-1-((2-methyl-1-(5-(1-methyl-6-oxo-1,6-dihydropyridin-3-yl)-3-(trifluoromethyl)-1H-pyrazol-1-yl)propan-2-yl)amino)-3-(1-methyl-1H-pyrazol-4-yl)-1-oxopropan-2-yl)-2-(4-(2-(trifluoromethyl)-2H-pyrazolo[3,4-b]pyridin-5-yl)phenyl)cyclopropane-1-carboxamide]	≤ 300
Cn1cc(C[C@@H](NC(=O)[C@H]2C[C@@H]2c2ccc(-c3cnc4nn(C)cc4c3)cc2)C(=O)NC(C)(C)Cn2nc(C(F)(F)F)cc2-c2cnn3c2CNCC3)cn1 [Example 96, (1S,2S)-N—((R)-1-((2-methyl-1-(5-(4,5,6,7-tetrahydropyrazolo[1,5-a]pyrazin-3-yl)-3-(trifluoromethyl)-1H-pyrazol-1-yl)propan-2-yl)amino)-3-(1-methyl-1H-pyrazol-4-yl)-1-oxopropan-2-yl)-2-(4-(2-methyl-2H-pyrazolo[3,4-b]pyridin-5-yl)phenyl)cyclopropane-1-carboxamide]	≤ 300
Cn1cc2cc(-c3ccc([C@H]4C[C@@H]4C(=O)N[C@H](Cc4cnc5ncccn45)C(=O)NC(C)(C)Cn4nc(C(F)(F)F)cc4C4CC4)cc3)cnc2n1 [Example 37, (1S,2S)-N-((R)-1-((1-(5-Cyclopropyl-3-(trifluoromethyl)-1H-pyrazol-1-yl)-2-methylpropan-2-yl)amino)-3-(imidazo[1,2-a]pyrimidin-3-yl)-1-oxopropan-2-yl)-2-(4-(2-methyl-2H-pyrazolo[3,4-b]pyridin-5-yl)phenyl) cyclopropane-1-carboxamide]	≤ 300
CN1CC2C=C(c3ccc([C@H]4C[C@@]45CCN([C@H](Cc4cnn(C(F)F)c4)C(=O)NC(C)(C)Cn4nc(C(F)(F)F)cc4-c4cnc(C(F)(F)F)nc4)C5=O)cc3)C=NC2C1=O (single isomer, unassigned; isomer 1) [Example 103]	≤ 300
Cn1cc(C[C@@H](NC(=O)[C@H]2C[C@@H]2c2ccc(-c3cnc4nccn4c3)cc2)C(=O)NC(C)(C)Cn2nc(C(F)(F)F)cc2-c2cn[nH]n2)cn1 [Example 27, (1S,2S)-N-((R)-1-((1-(5-(2H-1,2,3-Triazol-4-yl)-3-(trifluoromethyl)-1H-pyrazol-1-yl)-2-methylpropan-2-yl)amino)-3-(1-methyl-1H-pyrazol-4-yl)-1-oxopropan-2-yl)-2-(4-(imidazo[1,2-a]pyrimidin-6-yl)phenyl) cyclopropane-1-carboxamide]	≤ 300
[2H]C([2H])([2H])N(C(=O)[C@H]1C[C@@H]1c1ccc(-c2cnc3nn(C)cc3c2)nc1C(F)(F)F)[C@H](Cc1cnn(C(F)F)c1)C(=O)NC(C)(C)Cn1nc(C(F)(F)F)cc1-c1cc(F)c(=O)n(C)c1 [Example 136, (1S,2S)-N—((R)-3-(1-(Difluoromethyl)-1H-pyrazol-4-yl)-1-((1-(5-(5-fluoro-1-methyl-6-oxo-1,6-dihydropyridin-3-yl)-3-(trifluoromethyl)-1H-pyrazol-1-yl)-2-methylpropan-2-yl)amino)-1-oxopropan-2-yl)-N-(methyl-d3)-2-(6-(2-methyl-2H-pyrazolo[3,4-b]pyridin-5-yl)-2-(trifluoromethyl)pyridin-3-yl)cyclopropane-1-carboxamide]	≤ 300
[2H]C([2H])([2H])n1cc(C[C@H](C(=O)NC(C)(C)Cn2nc(C(F)(F)F)cc2-c2ccc(C(C)(C)OP(=O)(O)O)nc2)N2CC[C@@]3(C[C@@H]3c3ccc(-c4cnc5nn(C)cc5c4)cc3Cl)C2=O)cn1 [Example 195, 2-(5-(1-(2-((R)-2-((1S,3R)-1-(2-Chloro-4-(2-methyl-2H-pyrazolo[3,4-b]pyridin-5-yl)phenyl)-4-oxo-5-azaspiro[2.4]heptan-5-yl)-3-(1-(methyl-d3)-1H-pyrazol-4-yl)propanamido)-2-methylpropyl)-3-(trifluoromethyl)-1H-pyrazol-5-yl)pyridin-2-yl)propan-2-yl dihydrogen phosphate, ammonia salt]	≤ 300
Cc1cn2cc(-c3ccc(C4CC45CCN([C@H](Cc4cnn(C(F)F)c4)C(=O)NC(C)(C)Cn4nc(C(F)(F)F)cc4-c4cc(F)c(=O)n(C)c4)C5=O)c(C(F)F)c3)cnc2n1 (single isomer, unassigned; isomer 1) [Example 108]	≤ 300
[2H]C([2H])([2H])n1cc(C[C@H](C(=O)NC(C)(C)Cn2nc(C(F)(F)F)cc2-c2cnc(C(C)(C)OP(=O)(O)O)nc2)N2CC[C@@]3(C[C@@H]3c3ccc(-c4cnc5nn(C)cc5c4)cc3Cl)C2=O)cn1 [Example 198, 2-(5-(1-(2-((R)-2-((1S,3R)-1-(2-Chloro-4-(2-methyl-2H-pyrazolo[3,4-b]pyridin-5-yl)phenyl)-4-oxo-5-azaspiro[2.4]heptan-5-yl)-3-(1-(methyl-d3)-1H-pyrazol-4-yl)propanamido)-2-methylpropyl)-3-(trifluoromethyl)-1H-pyrazol-5-yl)pyrimidin-2-yl)propan-2-yl dihydrogen phosphate, ammonia salt]	≤ 300
CN1CC(n2cc3cc(-c4ccc([C@H]5C[C@@]56CCN([C@H](Cc5cnn(C(F)F)c5)C(=O)NC(C)(C)Cn5nc(C(F)(F)F)cc5-c5cc(F)c(=O)n(C)c5)C6=O)c(F)c4)cnc3n2)C1 (single isomer, unassigned; isomer 1) [Example 106]	≤ 300
Cn1cc(C[C@H](C(=O)NC(C)(C)Cn2nc(C(F)(F)F)cc2-c2ccc(=O)n(C)c2)N2CC[C@@]3(C[C@@H]3c3ccc(-c4cnc5nn(C)cc5c4)cc3)C2=O)cn1 [Example 98, (R)—N-(2-Methyl-1-(5-(1-methyl-6-oxo-1,6-dihydropyridin-3-yl)-3-(trifluoromethyl)-1H-pyrazol-1-yl)propan-2-yl)-3-(1-methyl-1H-pyrazol-4-yl)-2-((1R,3R)-1-(4-(2-methyl-2H-pyrazolo[3,4-b]pyridin-5-yl)phenyl)-4-oxo-5-azaspiro[2.4]heptan-5-yl)propanamide]	≤ 300
CN(C(=O)[C@H]1C[C@@H]1c1ccc(-c2cnc3nn(C)cc3c2)cc1F)[C@H](Cc1cnn(C)c1)C(=O)NC(C)(C)Cn1nc(C(F)(F)F)cc1-c1ccc(=O)n(C)c1 [Example 61, (1S,2S)-2-(2-Fluoro-4-(2-methyl-2H-pyrazolo [3,4-b]pyridin-5-yl)phenyl)-N-methyl-N-((R)-1-((2-methyl-1-(5-(1-methyl-6-oxo-1,6-dihydropyridin-3-yl)-3-(trifluoromethyl)-1H-pyrazol-1-yl)propan-2-yl)amino)-3-(1-methyl-1H-pyrazol-4-yl)-1-oxopropan-2-yl) cyclopropane-1-carboxamide]	≤ 300
